Test results taken from patent US20220144812A1, “QUINOLINE DERIVATIVES AND THEIR USE FOR THE TREATMENT OF CANCER” (Epizyme, Inc., priority 2019, published 2022).
Where two headings read alike, the source gives them in different places. At least one structure is not confirmed: it was looked up by name or label, or the drawing left a doubt.

Tests used:
[1] = system: H3K18Ac in HB-CLS-2 cells; test: H3K18AC in-cell western (ICW) assay; type: cell-based; conditions: read-out: CREBBP ICW IC50
Text: The following example describes methods and materials relating to an H3K18AC in-cell western assay. IC50 values (micromolar (μM)) are summarized in Table 1, Table 2, and Table 3 under the column labeled: “CREBBP ICW IC50 (micromolar).”
MATERIALS: HB-CLS-2 cell line, DMEM: Ham's F12 medium (1:1 mixture), penicillin-streptomycin, heat inactivated fetal bovine serum, D-PBS, Odyssey blocking buffer, 800CW goat anti-rabbit IgG (H+L) antibody, Licor Odyssey CLx Infrared Scanner, H3K18Ac rabbit monoclonal antibody. DRAQS fluorescent probe solution (5 mM), and 100% methanol were commercially available. HB-CLS-2 adherent cells were maintained in complete growth medium (DMEM: Ham's F12 supplemented with 10% v/v heat inactivated fetal bovine serum) and cultured at 37° C. under 5% CO2.
METHOD: Cell Treatment, ICW for detection of H3K18Ac and DNA content. HB-CLS-2 cells were seeded in assay medium (DMEM: Ham's F12 supplemented with 10% v/v heat inactivated fetal bovine serum and 1% Penicillin/Streptomycin) at a concentration of 80,000 cells per mL in a Poly-D-Lysine coated 384-well culture plates at 50 μL per well. Plates were incubated at room temperature for 30 minutes and then incubated at 37° C., 5% CO2 for additional 16-24 hours. Compounds and DMSO normalization were then added directly to the plates using a D300 Digital Dispenser and returned to the incubator at 37° C., 5% CO2 for 2 hrs. After the incubation, the contents of the plates were discarded into the appropriate waste stream and blotted on laboratory tissue to remove residual liquid. 90 μL per well of 100% ice cold methanol was added to the plates and incubated at room temperature for 15 minutes. Then methanol was then discarded into the appropriate waste stream and the plates again blotted on laboratory tissue to remove residual liquid. Plates were transferred to a Biotek 405 plate washer and washed 3 times with 100 μL per well of wash buffer (1X PBS containing 0.1% Triton X-100 (v/v)). Next, 50 μL per well of Odyssey blocking buffer with 0.1% Tween 20 (v/v) was added to each plate and incubated for 1 hour at room temperature. Blocking buffer was removed and 20 μL of primary antibody were added (α-H3K18Ac diluted 1:800 in Odyssey buffer with 0.1% Tween 20 (v/v)) and plates were incubated overnight (16 hours) at 4° C. Plates were washed 5 times with 100 μL per well of wash buffer. Next 20 μL per well of secondary antibody was added (1:400 800CW goat anti-rabbit IgG (H+L) antibody, 1:2000 DRAQ5 in Odyssey buffer with 0.1% Tween 20 (v/v)) and incubated for 1 hour at room temperature. The plates were washed 3 times with 100 μL per well wash buffer then 3 times with 100 μL per well of water. Plates were allowed to dry at room temperature then imaged on the Licor Odyssey CLx machine which measured integrated intensity at 700 nm and 800 nm wavelengths. Both 700 and 800 channels were scanned.

CREBBP (1084-1701) = target: T1, CREBBP (1084-1701) (Homo sapiens, UniProt Q92793); test: Biochemical assay for CREBBP (1084-1701), SAMDI; conditions: read-out: CREBBP Biochemistry IC50
T1 construct: measured in the following biochemical assay using CREBBP (1084-1701); purchased
Text: The following example describes materials and methods relating to a biochemical assay for CREBBP (1084-1701). IC50 values (micromolar (μM)) are summarized in Table 1, Table 2, and Table 3 under the column labeled: “CREBBP Biochemistry IC50 (micromolar).”
MATERIALS: Reagents 1M Tris pH 8.0, Tween 20 10%, DTT, bovine serum gelatin (BSG) 2%, Peptide #233 (biotin-H3 11-25, K14R, K23R), Acetyl-CoA, CREBBP (1084-1701), formic acid (100%), and sodium bicarbonate were commercially available.
METHODS: The effect of compounds was measured in the following biochemical assay using CREBBP (1084-1701). Enzyme mix 30 μL per well was added using a Multi-drop to wells of prepared Compound Stock plate. The enzyme was incubated in the Compound Stock plate for 30 minutes at room temperature. Substrate mix, 20 μL per well, was added to Compound Stock plate using a Multi-drop. The plate was covered and incubate 30 minutes at room temperature. The reaction was stopped with addition of 5 μL per well of 5% formic acid using a Multi-drop. The plate was Incubated for 30 minutes at room temperature. The reaction mixture was neutralized with addition of 5 μL per well of 10% sodium bicarbonate using a Multi-drop. The plate was Incubated for 35 minutes at room temperature. The reaction mixture was Transferred 2.5 μL per well to a SAMDI biochip. The plate was Incubated for 60 minutes at room temperature. The samples were washed, dried, and matrix applied to SAMDI biochip. The SAMDI biochip was then read on the mass spectrometer.

647V cells = test: High throughput proliferation (HTP) assay; type: cell-based; conditions: read-out: CREBBP HTP IC50
Text: The following example describes methods and materials relating to a high throughput proliferation (HTP) assay. IC50 values (micromolar) are summarized in Table 1, Table 2, and Table 3 under the column labeled: “CREBBP HTP IC50 (micromolar).”
MATERIALS: 647V cell line, Dulbecco's MEM, penicillin-streptomycin, heat inactivated fetal bovine serum, D-PBS, and CellTiter-Glo were commercially available.
647V adherent cells were maintained in complete growth medium (Dulbecco's MEM supplemented with 15% v/v heat inactivated fetal bovine serum) and cultured at 37° C. under 5% CO2.
METHOD: Measurement of the effect of compound in High Throughput Proliferation (HTP) assays was performed as follows: Exponentially growing 647V cells were plated, in triplicate, in 384-well plates at the appropriate cell density in a final volume of 50 μl. Cells were incubated in the presence of increasing concentrations of compound. Viable cell number was determined at day 7 by addition of 35 μl CellTiter-Glo to each well of the plate, incubated in the dark for 30 minutes, and read on a PerkinElmer EnVision instrument to enumerate the number of cells.

EP300 (P300(1048-1664)) = target: T2, EP300 (P300(1048-1664)) (Homo sapiens, UniProt Q09472); test: Biochemical assay for EP300, SAMDI; conditions: read-out: EP300 Biochemistry IC50
T2 construct: P300(1048-1664)
T2 sequence (Q09472 1048-1664): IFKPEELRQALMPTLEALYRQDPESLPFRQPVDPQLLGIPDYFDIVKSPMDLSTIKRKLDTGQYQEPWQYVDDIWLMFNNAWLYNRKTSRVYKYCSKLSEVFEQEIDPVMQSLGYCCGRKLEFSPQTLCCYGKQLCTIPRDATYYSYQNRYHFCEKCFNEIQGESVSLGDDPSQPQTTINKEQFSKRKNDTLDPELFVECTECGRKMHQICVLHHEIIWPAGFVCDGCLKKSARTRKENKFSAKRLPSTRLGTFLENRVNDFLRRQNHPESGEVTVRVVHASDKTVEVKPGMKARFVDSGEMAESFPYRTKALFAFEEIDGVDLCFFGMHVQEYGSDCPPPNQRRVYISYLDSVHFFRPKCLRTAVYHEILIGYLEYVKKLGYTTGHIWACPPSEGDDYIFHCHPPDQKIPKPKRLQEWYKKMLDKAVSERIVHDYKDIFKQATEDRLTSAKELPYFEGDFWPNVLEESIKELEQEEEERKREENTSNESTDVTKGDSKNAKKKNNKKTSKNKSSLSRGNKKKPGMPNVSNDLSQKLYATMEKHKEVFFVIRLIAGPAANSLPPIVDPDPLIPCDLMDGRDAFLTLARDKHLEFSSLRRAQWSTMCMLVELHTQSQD
Text: The following example describes materials and methods relating to a biochemical assay for EP300. IC50 values (micromolar (μM)) are summarized in Table 1, Table 2, and Table 3 under the column labeled: “EP300 Biochemistry IC50 (micromolar).”

Row | SMILES | IC50 [1] [µM] | IC50 (CREBBP (1084-1701)) [µM] | IC50 ([1]; HB-CLS-2 cells) [µM] | IC50 (647V cells) [µM] | IC50 (EP300 (P300(1048-1664))) [µM]
1 | CCn1ncc(CN(C)C(=O)c2nc(-c3ccc(OCCCN(C)C(=O)OC(C)(C)C)c(C)c3)nc3ccc(Cl)cc23)c1C [Compound 183] | 20 |  |  |  | 
2 | CCn1ncc(CN(C)C(=O)c2nc(-c3ccn(CCCN4CCCC4)n3)nc3ccc(Cl)cc23)c1C [Compound 184] | 20 | 200 |  |  | 
3 | CCn1ncc(CN(C)C(=O)c2nc(-c3cnn(C4CCN(C(=O)OC(C)(C)C)C4)c3)nc3ccc(Cl)cc23)c1C (centres unmarked) [Compound 199] |  | 200 | 20 |  | 
4 | CCn1ncc(CN(C)C(=O)c2nc(-c3ccccc3Cl)nc3c(C#N)cccc23)c1C [Compound 211] |  |  | 20 |  | 
5 | CCn1ncc(CN(C)C(=O)c2cc(-c3ccc(OCCNC)cn3)nc3ccc(Cl)cc23)c1C [Compound 216] |  | 200 | 20 | 20 | 200
6 | Cc1nn(C(C)C#N)c(C)c1CN(C)C(=O)c1nc(-c2cccc(Cl)c2)nc2ccc(Cl)cc12 (centres unmarked) [Compound 217] |  | 200 | 20 | 20 | 200
7 | CCn1ncc(CN(C)C(=O)c2nc(-c3cnn(CC4CCCN4C(=O)OC(C)(C)C)c3)nc3ccc(Cl)cc23)c1C (centres unmarked) [Compound 218] |  | 200 | 20 |  | 
8 | CCn1ncc(CN(C)C(=O)c2nc(N3CCCN(C(=O)OC(C)(C)C)CC3)nc3ccc(Cl)cc23)c1C [Compound 222] |  | 200 | 20 | 20 | 200
9 | CCn1ncc(CN(C)C(=O)c2nc(-c3cnn(CCNC(=O)OC(C)(C)C)c3)nc3ccc(Cl)cc23)c1C [Compound 226] |  | 200 | 20 |  | 
10 | CCn1ncc(CN(C)C(=O)c2nc(-c3cnc(CNC(C)=O)n3C)nc3ccc(Cl)cc23)c1C [Compound 237] |  |  | 20 |  | 
11 | CCn1ncc(CN(C)C(=O)c2nc(-c3cc(C(=O)NC)nn3C)nc3ccc(P(C)(C)=O)cc23)c1C [Compound 393] |  |  | 20 |  | 
12 | CCn1ncc(CN(C)C(=O)c2cc(-c3cc(C)nc(C)n3)nc3ccc(Cl)cc23)c1C [Compound 411] |  |  | 20 | 20 | 
